Measured values taken from publication PMC6960213.
Results are given in words; binding and its absence hold for the method and conditions named. Binding seen in cells or lysates may run through a third protein. For part of these data: Binding can be weak; no strength is given. Sequences can lack the tags named with a protein.

Protein sequences, listed by entry. Tags and fused reporters are not part of them. Lines headed by an entry give the natural chain unless they say otherwise; changes in a name come on top.
UniProt Q01668: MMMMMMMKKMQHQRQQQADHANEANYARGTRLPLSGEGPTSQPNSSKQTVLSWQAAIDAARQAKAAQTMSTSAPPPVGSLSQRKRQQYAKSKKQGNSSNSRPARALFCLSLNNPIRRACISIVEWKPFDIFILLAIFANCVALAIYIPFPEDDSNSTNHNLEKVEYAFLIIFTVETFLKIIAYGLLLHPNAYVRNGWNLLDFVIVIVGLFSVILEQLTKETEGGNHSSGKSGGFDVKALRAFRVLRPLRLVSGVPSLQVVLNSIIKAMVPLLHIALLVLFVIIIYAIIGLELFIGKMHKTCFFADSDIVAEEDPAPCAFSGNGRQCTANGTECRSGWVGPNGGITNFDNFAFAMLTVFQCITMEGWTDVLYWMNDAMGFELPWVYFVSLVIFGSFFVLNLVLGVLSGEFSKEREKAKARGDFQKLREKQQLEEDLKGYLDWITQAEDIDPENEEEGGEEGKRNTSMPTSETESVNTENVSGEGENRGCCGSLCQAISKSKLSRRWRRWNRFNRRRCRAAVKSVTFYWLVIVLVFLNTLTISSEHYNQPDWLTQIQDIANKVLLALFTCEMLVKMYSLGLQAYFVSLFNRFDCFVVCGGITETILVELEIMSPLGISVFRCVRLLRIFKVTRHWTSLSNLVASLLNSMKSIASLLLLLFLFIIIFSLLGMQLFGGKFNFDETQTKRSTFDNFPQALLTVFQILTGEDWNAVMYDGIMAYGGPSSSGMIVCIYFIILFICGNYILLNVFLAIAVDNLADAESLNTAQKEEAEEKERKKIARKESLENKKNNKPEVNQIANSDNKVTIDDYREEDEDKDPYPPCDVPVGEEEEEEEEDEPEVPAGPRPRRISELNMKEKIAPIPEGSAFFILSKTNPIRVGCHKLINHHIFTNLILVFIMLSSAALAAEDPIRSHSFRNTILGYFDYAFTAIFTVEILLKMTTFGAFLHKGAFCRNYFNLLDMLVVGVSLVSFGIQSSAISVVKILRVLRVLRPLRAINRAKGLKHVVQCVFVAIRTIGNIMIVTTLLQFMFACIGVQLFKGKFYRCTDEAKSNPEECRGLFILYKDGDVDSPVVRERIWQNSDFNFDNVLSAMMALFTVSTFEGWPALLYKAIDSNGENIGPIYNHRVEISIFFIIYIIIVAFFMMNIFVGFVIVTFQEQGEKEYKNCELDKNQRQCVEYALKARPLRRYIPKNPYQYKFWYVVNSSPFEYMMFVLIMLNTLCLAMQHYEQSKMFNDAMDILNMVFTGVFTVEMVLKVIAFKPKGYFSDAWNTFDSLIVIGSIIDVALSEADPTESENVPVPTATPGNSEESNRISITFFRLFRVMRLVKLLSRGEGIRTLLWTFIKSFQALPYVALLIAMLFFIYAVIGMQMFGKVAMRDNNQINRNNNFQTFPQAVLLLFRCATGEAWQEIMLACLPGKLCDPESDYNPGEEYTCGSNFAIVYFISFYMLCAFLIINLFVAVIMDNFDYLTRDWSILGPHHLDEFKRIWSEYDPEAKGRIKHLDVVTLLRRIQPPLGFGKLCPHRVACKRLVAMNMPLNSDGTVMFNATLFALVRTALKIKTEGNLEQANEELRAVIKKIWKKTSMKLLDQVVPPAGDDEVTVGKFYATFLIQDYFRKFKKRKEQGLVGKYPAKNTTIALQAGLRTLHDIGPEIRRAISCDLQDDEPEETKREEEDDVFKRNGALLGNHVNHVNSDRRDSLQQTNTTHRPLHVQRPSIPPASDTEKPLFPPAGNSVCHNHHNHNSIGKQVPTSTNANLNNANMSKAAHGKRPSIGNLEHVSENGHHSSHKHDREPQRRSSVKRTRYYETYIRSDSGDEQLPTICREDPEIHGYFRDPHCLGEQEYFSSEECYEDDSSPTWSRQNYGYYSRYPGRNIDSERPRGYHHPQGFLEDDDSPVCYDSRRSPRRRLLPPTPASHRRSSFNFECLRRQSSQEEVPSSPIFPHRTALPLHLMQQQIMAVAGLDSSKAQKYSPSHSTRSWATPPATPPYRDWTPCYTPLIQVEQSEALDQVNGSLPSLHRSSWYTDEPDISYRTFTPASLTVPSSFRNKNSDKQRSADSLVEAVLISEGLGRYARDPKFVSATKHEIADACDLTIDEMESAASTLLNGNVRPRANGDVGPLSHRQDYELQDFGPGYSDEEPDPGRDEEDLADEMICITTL
UniProt P04406: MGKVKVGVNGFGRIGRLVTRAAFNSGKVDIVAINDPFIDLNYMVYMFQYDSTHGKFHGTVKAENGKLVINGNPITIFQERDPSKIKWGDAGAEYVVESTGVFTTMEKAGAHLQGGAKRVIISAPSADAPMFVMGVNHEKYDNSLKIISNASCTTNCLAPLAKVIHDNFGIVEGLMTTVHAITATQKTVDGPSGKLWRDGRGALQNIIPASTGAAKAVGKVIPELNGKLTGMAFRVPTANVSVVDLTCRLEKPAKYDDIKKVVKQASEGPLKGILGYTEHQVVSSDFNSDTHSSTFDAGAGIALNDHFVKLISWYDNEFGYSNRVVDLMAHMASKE

B1: HA-tagged rat RIM-binding protein 2 (HA-rRBP2) (protein, UniProt Q9JIR1 1-1049)
chain: MREAAERRQQLELEHEQALAILNAKQQEIQLLQQSKVRELEEKCRVQSEQFNLLSRDLEKFRQHAGSIDLLGSNSVALLDVPLAPGKPFSQYMNGLATSIHKGHEGPTGHYSVIGDYIPLSGDKLESPCVKPSFLLRSSSPRCRFESEMDDDRSSNKSKHSSSGKVHLCVARYSYNPFDGPNENPEAELPLTAGKYLYVYGDMDEDGFYEGELLDGQRGLVPSNFVDFIQDNESRFAGTLGSEQDQNFLNHSGISLERDSILHLHSPTQVDSGITDNGGGTLDVNIDDIGEDIVPYPRKITLIKQLAKSVIVGWEPPAVPPGWGTVSSYNVLVDKETRMSLALGRRTKALIEKLNTAACTYRISVQCVTSRGNSDELQCTLLVGKDVVVAPSQLRVDNITQISAQLSWLPTNSNYSHIIFLNEEELDIVKAARYKYQFFNLRPNMAYKVKVLAQPHQMPWQLPLEQREKDEACVEFSTLPAGPPAPPQDVTVQAGATTASVQVSWKPPALTPTGLSNGANVTGYGVYAKGQRVAEVIAPTANGAAVELVRLRSLEAKAVSVRTLSAQGESMDSALAAIPPDLLVPPAPHPRTAPPPKPLTSDMDTKDLGPHVKVDESWEQSRPPGPAHGHMLEPPDMHSTGPGRRSPSPSRILPQPQGAPVSTTVAKAMAREAAQRVAETSKLEKRSLFLEQSSAGPYANSDEEDGYASPEVKRRGTSVDDFLKGSELGQQPHCCHGDEYHTESSRGSDLSDIMEEDEEELYSEMQLEDGGRRRPSGTSHNALKILGNSALMGRGDRMEHVSRRYSHSGGGPQRHRPMAPSIDEYTGRDHLSPDFYDESETDPGAEELPARIFVALFDYDPLTMSPNPDAAEEELPFKEGQIIKVYGDKDADGFYRGETCARLGLIPCNMVSEIHADDEEMMDQLLRQGFLPLNTPVEKIERSRRSGRGHSVPTRRMVALYDYDPRESSPNVDVEAELLFCTGDIITVFGEIDEDGFYYGELNGQKGLVPSNFLEEVPDDVEVHLSDAPPHYSHDPPMRTKAKRVSQPP

Experiments:
[1] = molecular target: GST-Cav1.3 43S_(C-term) (aa 1449–1679), short Cav1.3 C terminus (human) (UniProt Q01668); experiment: pull-down; GST-fusion proteins on glutathione Sepharose beads incubated with whole-cell lysates of HEK293 cells transfected with HA-RBP2, 3 h at 4 °C; lysis buffer 1× PBS, 0.5% Triton X-100 with protease inhibitors; four washes; western blot with anti-HA and anti-GAPDH; only the target purified
[2] = molecular target: GST-Cav1.3 42_(C-term) (aa 1449–2137), long Cav1.3 C terminus (human) (UniProt Q01668); experiment: as above
[3] = molecular target: GST (glutathione-S-transferase) alone; experiment: as above
[4] = molecular target: YFP-Cav1.3 42_(C-term) (Cav1.3-EF-preIQ-IQ-PostIQ-aa1453–2137, full-length C terminus) (human) (UniProt Q01668); experiment: co-IP; HA-rRBP2 and YFP-Cav1.3 42_(C-term) co-expressed in tsA-201 cells; lysate (1× PBS, 0.5% Triton X-100) with anti-GFP antibody or mouse IgG and Protein G-sepharose, 4 h at 4 °C; RBP2 detected with anti-RBP2-1318

| Molecule | binding [1] | binding [2] | binding [3] | binding [4] |
| --- | --- | --- | --- | --- |
| GAPDH (from UniProt P04406 1-335) | no binding | no binding |  |  |
| B1 | no binding | binds | no binding | binds |
